Results are given in words; binding and its absence hold for the method and conditions named. In cells and extracts the contact can be indirect. Some entries that bind do so weakly or less than the wild type. Where a sequence is shown, tags or fusion partners need not be part of it.
Target: T1, HA-tagged WHY1 in thylakoid membrane fractions (Arabidopsis thaliana) (UniProt Q9M9S3)
T1 sequence: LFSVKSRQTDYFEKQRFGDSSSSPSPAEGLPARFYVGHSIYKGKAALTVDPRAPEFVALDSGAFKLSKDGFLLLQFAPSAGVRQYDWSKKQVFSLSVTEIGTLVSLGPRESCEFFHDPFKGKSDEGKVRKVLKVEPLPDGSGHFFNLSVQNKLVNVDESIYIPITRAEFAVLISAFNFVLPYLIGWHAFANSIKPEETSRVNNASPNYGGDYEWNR
Experiment: co-IP; solubilised thylakoid membrane fractions 1, 2 and 3 of a sucrose gradient as input; antibody against the HA tag, 4 °C, protein A beads, washed with 50 mM Tris-HCl, 0.1% nonidet P-40, pH 8.0; immunoblots with antibodies against LHCA1, LHCA2, LHCA3, LHCA4 and LHCB1

The chains behind the UniProt entries cited, without tags or fusion partners. Residues count along the entry.
UniProt Q01667, residues 36-241: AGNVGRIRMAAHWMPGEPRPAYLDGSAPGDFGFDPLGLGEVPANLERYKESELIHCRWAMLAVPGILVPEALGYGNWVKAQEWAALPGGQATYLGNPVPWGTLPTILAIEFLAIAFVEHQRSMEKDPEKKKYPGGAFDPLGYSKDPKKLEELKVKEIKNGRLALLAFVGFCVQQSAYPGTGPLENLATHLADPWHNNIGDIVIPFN
UniProt Q9SYW8, residues 44-257: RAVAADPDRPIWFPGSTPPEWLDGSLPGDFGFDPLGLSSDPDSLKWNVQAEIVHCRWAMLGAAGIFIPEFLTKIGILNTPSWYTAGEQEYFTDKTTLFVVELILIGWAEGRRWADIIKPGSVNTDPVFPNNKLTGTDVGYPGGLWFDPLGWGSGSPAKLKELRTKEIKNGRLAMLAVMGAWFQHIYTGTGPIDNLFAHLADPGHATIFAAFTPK
UniProt Q9SY97, residues 40-273: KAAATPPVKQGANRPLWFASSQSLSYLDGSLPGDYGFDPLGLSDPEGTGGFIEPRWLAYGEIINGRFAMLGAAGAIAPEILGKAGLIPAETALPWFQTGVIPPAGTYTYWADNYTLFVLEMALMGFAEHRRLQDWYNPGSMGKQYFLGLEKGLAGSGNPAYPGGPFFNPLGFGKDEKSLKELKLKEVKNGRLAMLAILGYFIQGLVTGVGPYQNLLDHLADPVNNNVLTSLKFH

binding	Substance
binds	LHCA1 (endogenous, thylakoid membrane fractions) (from UniProt Q01667 36-241)
no binding	LHCA2 (endogenous, thylakoid membrane fractions) (from UniProt Q9SYW8 44-257)
no binding	LHCA3 (endogenous, thylakoid membrane fractions) (from UniProt Q9SY97 40-273)

From publication PMC5713321
